# The list shows a part of the results. Most entries show no effect beyond the scatter of the controls.
# Chains of the proteins cited; added tags and fusions are not shown. Lines headed by an entry give the natural chain unless they say otherwise; changes in a name come on top.
# UniProt Q8BTY2: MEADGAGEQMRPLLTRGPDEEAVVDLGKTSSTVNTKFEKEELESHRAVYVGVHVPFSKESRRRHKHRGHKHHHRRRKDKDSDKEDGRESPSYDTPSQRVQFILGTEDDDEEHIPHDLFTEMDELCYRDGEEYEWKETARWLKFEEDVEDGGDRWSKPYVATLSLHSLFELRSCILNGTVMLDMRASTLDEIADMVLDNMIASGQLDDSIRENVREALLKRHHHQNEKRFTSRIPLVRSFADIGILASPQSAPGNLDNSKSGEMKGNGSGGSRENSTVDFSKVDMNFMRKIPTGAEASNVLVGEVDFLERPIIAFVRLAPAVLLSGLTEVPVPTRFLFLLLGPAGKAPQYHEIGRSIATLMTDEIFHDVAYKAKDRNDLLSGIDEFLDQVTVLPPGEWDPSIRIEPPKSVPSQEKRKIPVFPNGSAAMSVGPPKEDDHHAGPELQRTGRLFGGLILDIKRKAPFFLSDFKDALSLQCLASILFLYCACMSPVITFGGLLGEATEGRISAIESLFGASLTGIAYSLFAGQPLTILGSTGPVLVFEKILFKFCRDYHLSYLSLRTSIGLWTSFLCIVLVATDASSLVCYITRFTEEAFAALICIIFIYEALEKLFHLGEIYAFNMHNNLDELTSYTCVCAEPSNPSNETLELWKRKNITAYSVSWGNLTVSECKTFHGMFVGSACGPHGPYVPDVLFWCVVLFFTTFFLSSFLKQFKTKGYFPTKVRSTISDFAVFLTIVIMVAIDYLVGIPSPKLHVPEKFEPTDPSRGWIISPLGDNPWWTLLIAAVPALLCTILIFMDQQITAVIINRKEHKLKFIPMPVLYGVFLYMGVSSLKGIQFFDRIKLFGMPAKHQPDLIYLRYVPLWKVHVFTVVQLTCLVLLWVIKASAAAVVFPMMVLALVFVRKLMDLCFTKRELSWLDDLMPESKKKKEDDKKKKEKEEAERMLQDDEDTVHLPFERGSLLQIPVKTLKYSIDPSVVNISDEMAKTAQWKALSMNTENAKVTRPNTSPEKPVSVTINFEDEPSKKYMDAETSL
# UniProt Q8BK30: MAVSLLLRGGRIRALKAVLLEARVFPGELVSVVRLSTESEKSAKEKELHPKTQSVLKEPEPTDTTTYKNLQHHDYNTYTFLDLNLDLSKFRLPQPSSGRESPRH
# UniProt Q8BTI8: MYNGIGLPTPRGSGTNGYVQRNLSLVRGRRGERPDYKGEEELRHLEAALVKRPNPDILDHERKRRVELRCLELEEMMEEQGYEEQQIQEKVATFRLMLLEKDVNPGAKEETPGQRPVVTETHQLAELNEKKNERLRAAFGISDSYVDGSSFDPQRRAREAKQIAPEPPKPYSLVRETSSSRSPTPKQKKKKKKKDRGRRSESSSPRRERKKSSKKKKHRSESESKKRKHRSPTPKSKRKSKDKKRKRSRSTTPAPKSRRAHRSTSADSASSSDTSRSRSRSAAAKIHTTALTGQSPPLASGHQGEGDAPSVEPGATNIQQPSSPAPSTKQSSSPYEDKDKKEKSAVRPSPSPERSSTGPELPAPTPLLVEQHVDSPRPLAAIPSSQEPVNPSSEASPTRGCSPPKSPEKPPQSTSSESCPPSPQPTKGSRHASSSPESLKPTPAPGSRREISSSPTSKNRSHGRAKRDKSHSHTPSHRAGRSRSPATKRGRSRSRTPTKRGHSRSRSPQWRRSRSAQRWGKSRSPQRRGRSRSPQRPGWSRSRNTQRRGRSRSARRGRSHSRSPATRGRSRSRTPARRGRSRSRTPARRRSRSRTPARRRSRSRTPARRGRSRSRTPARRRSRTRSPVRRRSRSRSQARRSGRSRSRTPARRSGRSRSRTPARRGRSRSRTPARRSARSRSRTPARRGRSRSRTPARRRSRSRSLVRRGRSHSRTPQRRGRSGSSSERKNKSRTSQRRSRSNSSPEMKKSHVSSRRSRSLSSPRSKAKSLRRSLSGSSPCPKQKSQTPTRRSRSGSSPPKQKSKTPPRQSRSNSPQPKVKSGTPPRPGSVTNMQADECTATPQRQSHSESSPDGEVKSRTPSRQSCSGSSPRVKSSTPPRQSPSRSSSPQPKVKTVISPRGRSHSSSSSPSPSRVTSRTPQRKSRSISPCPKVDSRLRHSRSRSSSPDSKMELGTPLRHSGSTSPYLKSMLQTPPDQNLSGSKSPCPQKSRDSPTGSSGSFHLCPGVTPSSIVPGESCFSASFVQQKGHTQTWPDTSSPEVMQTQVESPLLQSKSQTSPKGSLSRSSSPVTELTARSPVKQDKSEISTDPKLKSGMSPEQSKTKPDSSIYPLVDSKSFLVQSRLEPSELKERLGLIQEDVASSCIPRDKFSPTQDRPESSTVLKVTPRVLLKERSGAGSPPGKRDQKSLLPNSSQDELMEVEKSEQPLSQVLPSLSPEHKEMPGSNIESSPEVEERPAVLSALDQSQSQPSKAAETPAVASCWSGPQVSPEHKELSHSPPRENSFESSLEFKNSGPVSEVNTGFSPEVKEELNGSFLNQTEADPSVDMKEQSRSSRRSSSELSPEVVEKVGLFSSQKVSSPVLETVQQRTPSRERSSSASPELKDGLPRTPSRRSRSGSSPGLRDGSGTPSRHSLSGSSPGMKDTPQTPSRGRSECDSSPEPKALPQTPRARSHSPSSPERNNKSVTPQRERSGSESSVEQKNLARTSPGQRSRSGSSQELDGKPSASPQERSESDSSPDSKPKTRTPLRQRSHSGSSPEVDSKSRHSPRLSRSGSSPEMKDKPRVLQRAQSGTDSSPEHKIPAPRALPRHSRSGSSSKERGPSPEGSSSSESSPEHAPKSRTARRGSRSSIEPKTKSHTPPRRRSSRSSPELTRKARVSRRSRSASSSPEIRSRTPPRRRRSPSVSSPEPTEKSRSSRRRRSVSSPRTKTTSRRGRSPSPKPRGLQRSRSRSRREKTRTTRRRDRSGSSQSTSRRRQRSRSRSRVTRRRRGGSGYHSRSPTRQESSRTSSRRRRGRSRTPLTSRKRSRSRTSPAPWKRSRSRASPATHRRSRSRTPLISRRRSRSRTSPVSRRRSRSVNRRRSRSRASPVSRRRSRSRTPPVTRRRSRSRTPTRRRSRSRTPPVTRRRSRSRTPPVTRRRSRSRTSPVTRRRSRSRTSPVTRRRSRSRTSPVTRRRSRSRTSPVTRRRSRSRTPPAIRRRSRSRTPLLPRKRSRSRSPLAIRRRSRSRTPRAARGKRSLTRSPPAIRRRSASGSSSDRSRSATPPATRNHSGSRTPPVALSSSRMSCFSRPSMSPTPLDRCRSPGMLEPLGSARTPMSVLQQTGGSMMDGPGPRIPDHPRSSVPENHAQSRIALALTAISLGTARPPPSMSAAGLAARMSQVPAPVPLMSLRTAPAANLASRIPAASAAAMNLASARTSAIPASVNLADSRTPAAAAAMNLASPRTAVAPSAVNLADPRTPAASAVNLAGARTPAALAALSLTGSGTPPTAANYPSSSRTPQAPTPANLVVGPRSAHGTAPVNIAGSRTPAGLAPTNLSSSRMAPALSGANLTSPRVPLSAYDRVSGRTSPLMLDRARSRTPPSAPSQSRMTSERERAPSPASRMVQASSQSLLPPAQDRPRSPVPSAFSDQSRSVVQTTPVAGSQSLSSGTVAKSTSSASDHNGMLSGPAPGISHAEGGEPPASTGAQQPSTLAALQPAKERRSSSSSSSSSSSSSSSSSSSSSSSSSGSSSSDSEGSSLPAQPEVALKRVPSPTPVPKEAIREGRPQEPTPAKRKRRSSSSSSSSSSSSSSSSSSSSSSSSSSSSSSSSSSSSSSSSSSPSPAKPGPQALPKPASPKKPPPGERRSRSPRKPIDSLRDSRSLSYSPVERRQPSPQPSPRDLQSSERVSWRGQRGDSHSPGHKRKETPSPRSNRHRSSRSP
# UniProt Q8BTR5: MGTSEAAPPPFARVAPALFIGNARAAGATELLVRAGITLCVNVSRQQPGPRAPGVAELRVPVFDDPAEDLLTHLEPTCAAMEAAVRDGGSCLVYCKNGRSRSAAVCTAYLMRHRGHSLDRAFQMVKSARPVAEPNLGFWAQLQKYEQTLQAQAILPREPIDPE
# UniProt Q8BU11: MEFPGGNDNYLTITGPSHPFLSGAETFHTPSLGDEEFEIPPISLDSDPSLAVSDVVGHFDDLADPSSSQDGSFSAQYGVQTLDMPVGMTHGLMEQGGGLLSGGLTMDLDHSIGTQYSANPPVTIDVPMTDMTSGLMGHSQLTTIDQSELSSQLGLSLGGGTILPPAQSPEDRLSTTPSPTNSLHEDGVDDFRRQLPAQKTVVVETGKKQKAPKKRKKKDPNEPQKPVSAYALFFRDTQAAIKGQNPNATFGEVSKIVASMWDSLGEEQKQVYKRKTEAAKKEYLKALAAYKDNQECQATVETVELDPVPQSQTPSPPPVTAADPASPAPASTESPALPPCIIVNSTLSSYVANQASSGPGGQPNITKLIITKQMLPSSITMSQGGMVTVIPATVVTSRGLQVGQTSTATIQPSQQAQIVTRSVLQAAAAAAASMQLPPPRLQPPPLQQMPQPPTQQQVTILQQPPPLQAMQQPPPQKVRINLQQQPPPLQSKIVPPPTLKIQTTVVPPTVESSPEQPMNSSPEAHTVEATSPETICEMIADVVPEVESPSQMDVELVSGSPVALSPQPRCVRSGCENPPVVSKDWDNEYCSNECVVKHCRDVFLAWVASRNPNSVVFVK
# UniProt Q8BJM3: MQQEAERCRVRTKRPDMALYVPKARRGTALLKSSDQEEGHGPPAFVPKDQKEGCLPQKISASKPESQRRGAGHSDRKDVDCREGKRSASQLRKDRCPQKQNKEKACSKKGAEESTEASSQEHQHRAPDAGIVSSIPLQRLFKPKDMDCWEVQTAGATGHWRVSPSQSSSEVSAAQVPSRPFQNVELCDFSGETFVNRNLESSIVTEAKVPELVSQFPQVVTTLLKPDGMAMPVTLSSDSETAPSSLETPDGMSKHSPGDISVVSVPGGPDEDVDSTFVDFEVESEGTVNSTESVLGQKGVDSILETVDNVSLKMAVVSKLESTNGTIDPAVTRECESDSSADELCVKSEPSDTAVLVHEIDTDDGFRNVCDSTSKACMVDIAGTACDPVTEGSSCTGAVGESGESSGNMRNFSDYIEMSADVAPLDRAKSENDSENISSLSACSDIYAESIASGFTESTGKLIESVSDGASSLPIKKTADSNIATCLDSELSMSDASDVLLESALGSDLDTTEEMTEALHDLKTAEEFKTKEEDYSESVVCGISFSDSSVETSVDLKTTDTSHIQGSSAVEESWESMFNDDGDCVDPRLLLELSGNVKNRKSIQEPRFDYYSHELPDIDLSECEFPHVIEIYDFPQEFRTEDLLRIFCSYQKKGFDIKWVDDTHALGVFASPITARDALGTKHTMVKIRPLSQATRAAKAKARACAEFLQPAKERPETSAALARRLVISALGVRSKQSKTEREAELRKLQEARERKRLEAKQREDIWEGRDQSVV
# UniProt Q8C3B8: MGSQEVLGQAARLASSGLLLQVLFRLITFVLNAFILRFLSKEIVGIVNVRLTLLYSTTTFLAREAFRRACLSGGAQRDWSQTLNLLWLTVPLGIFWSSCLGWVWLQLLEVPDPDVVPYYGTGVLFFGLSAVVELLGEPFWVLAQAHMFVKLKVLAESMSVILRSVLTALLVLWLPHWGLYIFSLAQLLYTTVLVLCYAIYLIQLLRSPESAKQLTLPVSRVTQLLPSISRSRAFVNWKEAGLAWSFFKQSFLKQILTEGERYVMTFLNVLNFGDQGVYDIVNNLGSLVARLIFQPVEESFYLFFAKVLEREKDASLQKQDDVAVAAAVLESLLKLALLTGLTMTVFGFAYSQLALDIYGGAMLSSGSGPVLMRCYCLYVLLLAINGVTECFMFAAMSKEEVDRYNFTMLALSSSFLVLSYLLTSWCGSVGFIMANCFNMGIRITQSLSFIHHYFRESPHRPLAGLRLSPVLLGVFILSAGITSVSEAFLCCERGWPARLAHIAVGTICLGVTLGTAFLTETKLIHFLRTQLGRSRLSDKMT
# UniProt Q8BYW1: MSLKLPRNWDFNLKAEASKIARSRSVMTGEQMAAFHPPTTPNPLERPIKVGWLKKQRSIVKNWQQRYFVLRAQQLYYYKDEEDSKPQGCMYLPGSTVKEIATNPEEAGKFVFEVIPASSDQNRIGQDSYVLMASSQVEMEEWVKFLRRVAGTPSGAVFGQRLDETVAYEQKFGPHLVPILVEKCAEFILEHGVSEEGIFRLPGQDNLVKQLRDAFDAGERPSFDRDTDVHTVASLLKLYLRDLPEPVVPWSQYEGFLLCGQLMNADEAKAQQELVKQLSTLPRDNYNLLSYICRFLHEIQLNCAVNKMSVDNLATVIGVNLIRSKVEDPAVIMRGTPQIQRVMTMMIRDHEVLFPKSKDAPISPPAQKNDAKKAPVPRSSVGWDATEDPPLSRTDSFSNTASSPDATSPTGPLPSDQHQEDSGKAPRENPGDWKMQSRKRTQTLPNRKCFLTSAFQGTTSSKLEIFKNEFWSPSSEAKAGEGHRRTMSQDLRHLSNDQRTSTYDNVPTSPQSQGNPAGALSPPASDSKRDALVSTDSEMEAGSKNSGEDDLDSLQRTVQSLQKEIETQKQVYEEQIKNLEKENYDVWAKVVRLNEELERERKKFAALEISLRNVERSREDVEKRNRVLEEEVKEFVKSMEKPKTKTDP
# Compound: CN[C@@H]1C[C@H]2O[C@@](C)([C@@H]1OC)n1c3ccccc3c3c4c(c5c6ccccc6n2c5c31)C(=O)NC4 [staurosporine]
# Test: log2 fold change of pooled soluble protein (PISA), ligand vs vehicle (log2 ratio); higher = more thermally stabilized
# Details: ligand concentration: 20 uM; assay format: PISA pool 52.9/55.5/58.6 C
row,Target,log2 fold change of pooled soluble protein
1,UniProt Q8BJ48,0.0232
2,UniProt Q8BRM2,0.357
3,UniProt Q8BX80,0.113
4,UniProt Q8C166,-0.0213
5,UniProt Q8BTY2,0.166
6,UniProt Q8CBY8,-0.00125
7,UniProt Q8BPM0,-0.422
8,UniProt Q8BGT7,-0.0705
9,UniProt Q8BWR2,-0.631
10,UniProt Q8BJ64,-0.135
11,UniProt Q8BK30,0.0944
12,UniProt Q8BH50,-0.149
13,UniProt Q8BZI6,-0.0896
14,UniProt Q8BU14,-0.153
15,UniProt Q8BTI8,0.04
16,UniProt Q8BXJ9,-0.095
17,UniProt Q8C0D5,0.0263
18,UniProt Q8BW96,0.42

row,Target,log2 fold change of pooled soluble protein
1,UniProt Q8BHJ5,-0.0524
2,UniProt Q8BH55,0.00209
3,UniProt Q8BI08,-0.0344
4,UniProt Q8BKX1,-0.0254
5,UniProt Q8BP40,0.00308
6,UniProt Q8BH31,0.0566
7,UniProt Q8C5P7,-0.0424
8,UniProt Q8C180,-0.21
9,UniProt Q8BRT1,0.0465
10,UniProt Q8BKI2,0.0532
11,UniProt Q8BTR5,-0.0379
12,UniProt Q8BU11,0.119
13,UniProt Q8BJM3,-0.16
14,UniProt Q8BM72,-0.182
15,UniProt Q8C3B8,-0.37
16,UniProt Q8C165,-0.00242
17,UniProt Q8BYW1,0.154
18,UniProt Q8BJ05,-0.057

# A second format for part of the listing above:
row | Target | log2 fold change of pooled soluble protein
13 | UniProt Q8BJM3 | -0.16
15 | UniProt Q8C3B8 | -0.37

# — the supplement of paper PMC12819154, “High-throughput peptide-centric local stability assay extends protein–ligand identification to membrane proteins, tissues and bacteria” (Nature Structural & Molecular Biology, 2025)
